Earlier results in patent publication US10385019B2, “Inhibitors of EGFR and methods of use thereof” (Dana-Farber Cancer Institute, Inc., priority 2015, dated 2019).
For at least one compound, name, drawing or mass did not settle the structure.

Test system: NSCLC that have developed resistance to gefitinib or erlotinib
Settings: patients with NSCLC resistant to gefitinib or erlotinib; cited from earlier work

SMILES: CN(C)C/C=C/C(=O)Nc1cc2c(Nc3ccc(F)c(Cl)c3)ncnc2cc1O[C@H]1CCOC1 [afatinib]
- response rate (RR): < 10%
